From article PMC7819943, “Rice protein-binding microarrays: a tool to detect cis-acting elements near promoter regions in rice”
The list shows a part of the results.

Protein sequences, listed by entry. Tags and fused reporters are not part of them.
UniProt Q0JBA9, entry or part of it: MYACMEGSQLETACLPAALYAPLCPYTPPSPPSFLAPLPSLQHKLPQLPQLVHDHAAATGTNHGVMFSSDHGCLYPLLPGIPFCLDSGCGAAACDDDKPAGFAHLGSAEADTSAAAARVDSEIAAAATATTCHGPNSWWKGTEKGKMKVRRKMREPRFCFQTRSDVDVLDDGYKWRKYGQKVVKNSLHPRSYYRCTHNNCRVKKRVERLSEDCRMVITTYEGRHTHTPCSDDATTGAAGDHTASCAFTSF

target: OsWRKY34 (Oryza sativa, UniProt Q0JBA9 1-250); experiment: protein-binding microarray (RPBM); PBS, 2% BSA, 51.3 ng/ul salmon testes DNA, 50 uM zinc acetate, 200 nM TF, 25 C, 1 h; high values mean tight binding; settings: protein: recombinant; tags: N-terminal polyhistidine and DsRed monomer fusion (pET32a); label: CyDye5-dUTP incorporated in the synthesized complementary strand; 3' TTTTT single-stranded linker to array surface; dsDNA, one strand shown
Outline: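 Binding signal here means per-feature fluorescence intensity in arbitrary units. The values were read on an Axon 4000B scanner after a custom Agilent array, double-stranded by primer extension with Cy5-dUTP, was incubated with 200 nM protein at 25 °C for 1 h in PBS with 2% BSA, salmon testes DNA and 50 µM zinc acetate, then washed. The proteins were transcription factors with an N-terminal polyhistidine tag and DsRed, expressed in E. coli BL21-CodonPlus and purified on Ni–NTA.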

Point of comparison: “GCCCGCCACGTCTCTAAGTCGCTAGTACGCGCGAATTAGCCGGAGTCACCTAGTGCAG”, binding signal 8280 fluorescence intensity (a.u.). Against it:
- ACCTCTTCTCCCCGCGCTGGCTCGACATCTGGCGCGCCGACGGAGTCACCTAGTGCAG — lower, 8130 fluorescence intensity (a.u.)
- ATTAATGGGCTCTTTTGTTTCTATGGAATTTTGCGAAAAACGGAGTCACCTAGTGCAG — higher, 8480 fluorescence intensity (a.u.)
- ACCCCAAGTCCCCATCCACTCCACCACCCCGGCCATTCCACGGAGTCACCTAGTGCAG — higher, 9290 fluorescence intensity (a.u.)
- TTCCTTTGAGTATATCTCTCTCATCCTGTTCGTGCGTTTTCGGAGTCACCTAGTGCAG — higher, 8480 fluorescence intensity (a.u.)
- GGATCAGGTGGAGGAATAGCGATGGGAGGGGTGGTGGTTGCGGAGTCACCTAGTGCAG — higher, 13800 fluorescence intensity (a.u.)
- CTGTTTTAGGCATTACTCAAATTTTATAGGAATTAAATAACGGAGTCACCTAGTGCAG — lower, 8050 fluorescence intensity (a.u.)
- AGGGCGTATTGTGGTGCACACTTGTCGTTTGACCTTTTAACGGAGTCACCTAGTGCAG — higher, 12700 fluorescence intensity (a.u.)
- AATTCTATCCTCCACCTTTTGCTGCCGCTCTCGCCATACCCGGAGTCACCTAGTGCAG — higher, 11100 fluorescence intensity (a.u.)
- GTTTGTTTCGGCCTGTTTACCTTTCTCCTTATCCTTGGATCGGAGTCACCTAGTGCAG — higher, 11700 fluorescence intensity (a.u.)
- GGGAGACGGTGGCGGCGGGGACTGGGGCTCGAGGGAGATGCGGAGTCACCTAGTGCAG — lower, 8070 fluorescence intensity (a.u.)
- GATGAGGGTGGGGCAAAGGGTCTCTTGTCATATAACCTCGCGGAGTCACCTAGTGCAG — higher, 15400 fluorescence intensity (a.u.)
- CCGATATTCGAAACACGCTCCGCATCCGCACCCGTTTTTTCGGAGTCACCTAGTGCAG — higher, 8710 fluorescence intensity (a.u.)
- ACTGCGGCTTCTCTCTTGCTTCTTTTGGCCGTTTGCAAAGCGGAGTCACCTAGTGCAG — higher, 12800 fluorescence intensity (a.u.)
- TTCAATTGGACGCGTCGCGGTCGCGATCCGCCGATCGATCCGGAGTCACCTAGTGCAG — higher, 8380 fluorescence intensity (a.u.)
- ATATAACCCGCTGCTCTTCTCTCTCATCTTTTATCTTATTCGGAGTCACCTAGTGCAG — higher, 9410 fluorescence intensity (a.u.)
- GAGCCTCTATTTCTACTTCTCCACCTTTTACGGTTGAGAGCGGAGTCACCTAGTGCAG — higher, 9200 fluorescence intensity (a.u.)
- CATTTCTCATTTAATTCTTTTACCTACTTTCTCATCTTAACGGAGTCACCTAGTGCAG — higher, 9200 fluorescence intensity (a.u.)
- ACATACCATCGTTATTTGCATGTCAACCAAACCAAATGGTCGGAGTCACCTAGTGCAG — higher, 8990 fluorescence intensity (a.u.)
- CGGTGGGAGTGGGATAAAGGGACGTGGGGCGAGGTAGACCCGGAGTCACCTAGTGCAG — higher, 13400 fluorescence intensity (a.u.)
- ATTTCTACTGTAGCTACCATCTTTTTCAGTACTTCTAGTTCGGAGTCACCTAGTGCAG — higher, 11000 fluorescence intensity (a.u.)
- CTATCCATATTCCTGTGAGTTAATATCTTCTCATATAAAACGGAGTCACCTAGTGCAG — lower, 8130 fluorescence intensity (a.u.)
- CCCCACCAATCACCGCAGCTAGAACTCCCTCCGTCCCGTTCGGAGTCACCTAGTGCAG — higher, 9740 fluorescence intensity (a.u.)
- CTTTGTATCGTTCACAATATCTCTGTTCTTGTTGTTCTTCCGGAGTCACCTAGTGCAG — higher, 11800 fluorescence intensity (a.u.)
- CGCTAATCCTGACCCTCTCCCTCTACTTCCAATCTCATCTCGGAGTCACCTAGTGCAG — higher, 9110 fluorescence intensity (a.u.)
- GAGAGATTTAAGCACACAAGCCCAACCAAAGTCAACGCCACGGAGTCACCTAGTGCAG — higher, 10600 fluorescence intensity (a.u.)
- CAAAGATTTTGCCGAGTTGGGCGGGTTAATAATAATAATACGGAGTCACCTAGTGCAG — higher, 9840 fluorescence intensity (a.u.)
- CCTCAAGTTATTATCACTGTTTCTCTCACTCTCTCGTGATCGGAGTCACCTAGTGCAG — higher, 10600 fluorescence intensity (a.u.)
- CATTCCATTTTCTTTAGGAGTGGTCTTGATCCATTTTTATCGGAGTCACCTAGTGCAG — higher, 9560 fluorescence intensity (a.u.)
- GCCGCCTCCACCAAATCCCCTACGGTCACCACCACTCGTTCGGAGTCACCTAGTGCAG — higher, 8560 fluorescence intensity (a.u.)
- CTCCCTATTGTTTATGTGTCGGACCTGGCATGCGGCCTATCGGAGTCACCTAGTGCAG — higher, 8760 fluorescence intensity (a.u.)
- AAACCTGACTGTTGTTATTCCAAAGTTACAAAGCTAATTTCGGAGTCACCTAGTGCAG — higher, 8500 fluorescence intensity (a.u.)
- GCACCGTGCACTATCTTGATTTTTGGCCATTTAACTGTTTCGGAGTCACCTAGTGCAG — higher, 8760 fluorescence intensity (a.u.)
- GCATGTTGGCTTGTATGTTGATCTTGTGTCTTGATCTATTCGGAGTCACCTAGTGCAG — higher, 9680 fluorescence intensity (a.u.)
- TCACATGCCAATTCAGCTGGTTAGACTAGATCAACCCAGTCGGAGTCACCTAGTGCAG — higher, 8310 fluorescence intensity (a.u.)
- CTTCATTCGATTTATAGGCCCCAGCACTGCATGCGTATCCCGGAGTCACCTAGTGCAG — higher, 9450 fluorescence intensity (a.u.)
- CGGGGAGGGGAGGGCTGTGAAATCCTAGGGTTGGGCGAAGCGGAGTCACCTAGTGCAG — higher, 15000 fluorescence intensity (a.u.)
- GCCAAAATCCCGGCCCATACACGTTGGAGTAAGTCCACTTCGGAGTCACCTAGTGCAG — lower, 8230 fluorescence intensity (a.u.)
- TAAGGTAAACGGTCAAATATTTTTAAAAAAGTCAACGATACGGAGTCACCTAGTGCAG — higher, 10500 fluorescence intensity (a.u.)
- GATCAATTATTACCTTGCTTATTCCTAATATCTATACTAACGGAGTCACCTAGTGCAG — higher, 8760 fluorescence intensity (a.u.)
- CACTTTTTCATGGATTTTTACTTATTTAATGATTTTTTATCGGAGTCACCTAGTGCAG — lower, 8240 fluorescence intensity (a.u.)
- ATGCTGCTGAGGTTGACCTTTATTTAAGAATACCCTAGCGCGGAGTCACCTAGTGCAG — higher, 8840 fluorescence intensity (a.u.)
- TTAGTGATTTGTATTTTTATTTTAATGCGTGATTTTTTTACGGAGTCACCTAGTGCAG — higher, 8980 fluorescence intensity (a.u.)
- AACAAATTTGACTATAAATAGAACGCGTATTTCATGCTCACGGAGTCACCTAGTGCAG — higher, 8460 fluorescence intensity (a.u.)
- TTTTCATGTATTTATATATTTTTATACGTTTATCAGTTATCGGAGTCACCTAGTGCAG — higher, 9880 fluorescence intensity (a.u.)
- TGGTTACTGGCGGTGCCTAAAGGTTTCTTTTCTTGATTATCGGAGTCACCTAGTGCAG — lower, 8220 fluorescence intensity (a.u.)
- TAATCATACGCTAATGGCTCACATCGTTTTGCATATCTTTCGGAGTCACCTAGTGCAG — higher, 8720 fluorescence intensity (a.u.)
- TGTTTGCAATGCTCTCGTCCTCATCCATTTCGTCCAAGAACGGAGTCACCTAGTGCAG — higher, 11600 fluorescence intensity (a.u.)
- GCTGGGAGATTTCTTCTGTTTGTTCTTTTGTTTCGTCGTGCGGAGTCACCTAGTGCAG — higher, 9400 fluorescence intensity (a.u.)
- CACGAGCTCTCGTCTCGCCGCGTCCACACCAATCGGCGCCCGGAGTCACCTAGTGCAG — higher, 9490 fluorescence intensity (a.u.)
- GGTAAGTCTTGCTCCTTCAGTATTAAGCCTACTGTTTGAACGGAGTCACCTAGTGCAG — lower, 8050 fluorescence intensity (a.u.)
- CCACTGCTATATATGTTCCTCGTTTTCCGCTGGCCAGTCACGGAGTCACCTAGTGCAG — higher, 13400 fluorescence intensity (a.u.)
- GCTGTTTGACTTTTTCTTAATTAAGCTTCTTTATGTTTGACGGAGTCACCTAGTGCAG — higher, 19700 fluorescence intensity (a.u.)
- GGCCTATCCCACACTATTCATCCGTTGGCCCAATACAAATCGGAGTCACCTAGTGCAG — higher, 9340 fluorescence intensity (a.u.)
